The supplement of paper PMC12823440, “Inhibitors supercharge kinase turnover through native proteolytic circuits” (Nature, 2025)
Where a name gives a salt, the structure may show the parent alone. This is one part of the list. The calls rarely recur for the same compound in another form.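 Kinases were expressed as nanoluciferase fusions in K562 cells and luminescence was read every 4 h between 2 and 18 h as percent of control, DMSO set to 100% and a positive control to 0%. A time point counts as decreased when the signal drops significantly (2 sigma). The hit call is the authors' own, does not follow from the count of time points alone, and its rule is not shown.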

Protein sequences, listed by entry. Tags and fused reporters are not part of them. Lines headed by an entry give the natural chain unless they say otherwise; changes in a name come on top.
UniProt P06239: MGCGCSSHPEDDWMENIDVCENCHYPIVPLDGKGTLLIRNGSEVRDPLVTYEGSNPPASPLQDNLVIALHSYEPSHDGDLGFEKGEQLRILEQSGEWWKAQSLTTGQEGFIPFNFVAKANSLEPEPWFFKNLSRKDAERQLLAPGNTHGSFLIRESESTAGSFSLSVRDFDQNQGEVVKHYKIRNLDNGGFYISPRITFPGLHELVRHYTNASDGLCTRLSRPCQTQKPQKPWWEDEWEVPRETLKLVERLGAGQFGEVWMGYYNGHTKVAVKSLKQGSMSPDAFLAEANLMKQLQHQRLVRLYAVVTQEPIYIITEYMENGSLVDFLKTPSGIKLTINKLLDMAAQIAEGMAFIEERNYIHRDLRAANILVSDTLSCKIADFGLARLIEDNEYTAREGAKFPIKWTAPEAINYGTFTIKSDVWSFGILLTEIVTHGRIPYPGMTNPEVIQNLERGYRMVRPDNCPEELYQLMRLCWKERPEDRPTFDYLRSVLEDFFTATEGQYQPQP

Target: LCK (UniProt P06239)
Assay: number of time points (of 5) at which kinase-Nluc abundance scored as decreased, DMSO-normalised (count); higher = more persistent destabilization
Conditions: K562; 2-18 h

Row | SMILES | number of time points
1 | CCS(=O)(=O)c1ccc(Oc2cc(O[C@@H](C)CO)cc(C(=O)Nc3ccn(C)n3)c2)cn1 (10 µM) | 0
2 | O=C1C(=Cc2ccc(O)c(O)c2)Oc2ccccc21 (2.5 µM) | 0
3 | CN(C)CCCNc1ccn2ncc(-c3ccc4c(c3)OCO4)c2n1 (10 µM) | 0
4 | COc1ccc(C(=O)c2cn(C(C)C)c3ncnc(N)c23)cc1NC(=O)Nc1ccc(Cl)cc1Cl (10 µM) | 0
5 | C[C@@H]1CN(Cc2cn[nH]c2-c2ccc(C#N)cc2)CCN1c1ccc(C(F)(F)F)cn1 (2.5 µM) | 0
6 | O=C1c2c(O)cc(O)cc2O[C@H](c2cc(O)c(O)c(O)c2)[C@H]1O [Dihydromyricetin] (10 µM) | 0
7 | C=CC(=O)N[C@H]1CCOC[C@H]1Nc1ncc2cc(-c3c(Cl)c(OC)cc(OC)c3Cl)ccc2n1 [Fisogatinib] (10 µM) | 0
8 | CC(C)(O)c1cc(Nc2cc(Oc3cn(C4CC4)nc3C3CCOCC3)ccn2)ccn1 (10 µM) | 0
9 | CC[C@H](C)[C@@H]1NC(=O)[C@@H]2CCCN2C(=O)[C@@H]2CCCN2C(=O)[C@@H]2CCCN2C(=O)[C@H](CC(C)C)NC(=O)CNC(=O)CNC(=O)[C@H](Cc2ccccc2)NC1=O [Heterophyllin B] (10 µM) | 0
10 | COc1cc(-c2cnc(N)c(-c3ccc(NC(=O)c4cn(CC5CCOCC5)cc(-c5ccc(C)cn5)c4=O)cc3F)c2)ccc1OC[C@H]1COCCO1 [DS-1205b (free base)] (10 µM) | 0
11 | C=CC(=O)Nc1cccc(Nc2nc(Nc3ccc(Oc4ccnc(C(=O)NC)c4)cc3)ncc2F)c1 (2.5 µM) | 0
12 | COc1ccc(-c2cnc3c(-c4cccc5ncccc45)cnn3c2)cc1 (10 µM) | 0
13 | Cc1c(Br)c(Br)c2c3c1nc(N1CCNCC1)n3CCC2 [SEL120-34A (monohydrochloride)] (2.5 µM) | 0
14 | Cc1nc(Nc2ncc(C(=O)Nc3c(C)cccc3Cl)s2)cc(N2CCN(C(=O)CCCCCCC(=O)N[C@H](C(=O)N3C[C@H](O)C[C@H]3C(=O)NCc3ccc(-c4scnc4C)cc3)C(C)(C)C)CC2)n1 (2.5 µM) | 2
15 | CC(=O)Nc1nc(C)c(-c2ccc(Cl)c(S(=O)(=O)NCCO)c2)s1 (10 µM) | 0
16 | CC(C)n1nc(C#Cc2ccccc2)c2c(N)ncnc21 (10 µM) | 0
17 | COc1cc(OC)c(/C=C/S(=O)(=O)Cc2ccc(OC)c(NCC(=O)O)c2)c(OC)c1 [Rigosertib (sodium)] (10 µM) | 0
18 | CNC[C@@H](NC(=O)c1ccc(-c2nc([C@H]3CC[C@H](O)[C@@H](F)C3)cnc2N)cc1F)c1cc(F)cc(Br)c1 [Rineterkib] (10 µM) | 0
19 | CCCC[C@H](CO)Nc1nc(NC)ncc1OC [Interferon receptor inducer-1] (10 µM) | 0

10 entries already listed, arranged by count of non-hydrogen atoms, high to low:
Row | SMILES | number of time points
14 | Cc1nc(Nc2ncc(C(=O)Nc3c(C)cccc3Cl)s2)cc(N2CCN(C(=O)CCCCCCC(=O)N[C@H](C(=O)N3C[C@H](O)C[C@H]3C(=O)NCc3ccc(-c4scnc4C)cc3)C(C)(C)C)CC2)n1 (2.5 µM) | 2
9 | CC[C@H](C)[C@@H]1NC(=O)[C@@H]2CCCN2C(=O)[C@@H]2CCCN2C(=O)[C@@H]2CCCN2C(=O)[C@H](CC(C)C)NC(=O)CNC(=O)CNC(=O)[C@H](Cc2ccccc2)NC1=O [Heterophyllin B] (10 µM) | 0
11 | C=CC(=O)Nc1cccc(Nc2nc(Nc3ccc(Oc4ccnc(C(=O)NC)c4)cc3)ncc2F)c1 (2.5 µM) | 0
7 | C=CC(=O)N[C@H]1CCOC[C@H]1Nc1ncc2cc(-c3c(Cl)c(OC)cc(OC)c3Cl)ccc2n1 [Fisogatinib] (10 µM) | 0
1 | CCS(=O)(=O)c1ccc(Oc2cc(O[C@@H](C)CO)cc(C(=O)Nc3ccn(C)n3)c2)cn1 (10 µM) | 0
5 | C[C@@H]1CN(Cc2cn[nH]c2-c2ccc(C#N)cc2)CCN1c1ccc(C(F)(F)F)cn1 (2.5 µM) | 0
3 | CN(C)CCCNc1ccn2ncc(-c3ccc4c(c3)OCO4)c2n1 (10 µM) | 0
6 | O=C1c2c(O)cc(O)cc2O[C@H](c2cc(O)c(O)c(O)c2)[C@H]1O [Dihydromyricetin] (10 µM) | 0
13 | Cc1c(Br)c(Br)c2c3c1nc(N1CCNCC1)n3CCC2 [SEL120-34A (monohydrochloride)] (2.5 µM) | 0
2 | O=C1C(=Cc2ccc(O)c(O)c2)Oc2ccccc21 (2.5 µM) | 0

Further compounds.

Row | SMILES | number of time points
20 | CC(C)=C/C=C1\O[C@@H]2CC(C)=CC(=O)[C@@H]2[C@]1(C)O [Bisabolangelone] (10 µM) | 0
21 | CCCCCC1CC1CC1CC1CCCCCCCC(=O)O (stereo not drawn) (10 µM) | 0
22 | CNC(=O)c1c(C)oc2cc(Oc3ncnc4cc(OC)c(OC)cc34)ccc12 [Fruquintinib] (10 µM) | 0
23 | CC(C)(C)S(=O)(=O)c1cc2c(Nc3ccc4scnc4c3)ccnc2cc1OCCOCCOCCOCCOCC(=O)Nc1cccc2c1CN(C1CCC(=O)NC1=O)C2=O (stereo not drawn) [PROTAC RIPK degrader-6] (10 µM) | 0
24 | C[C@]1(O)C[C@@](N)(c2ccc(-c3nc4n(c3-c3ccccc3)COc3ccncc3-4)cc2)C1 [TAS-117 (hydrochloride)] (10 µM) | 0
25 | CNC(=O)c1nnc(NC(=O)C2CC2)cc1Nc1cccc(-c2ncn(C)n2)c1OC [Deucravacitinib] (10 µM) | 0
26 | O=c1sn(-c2cccc3ccccc23)c(=O)n1Cc1ccccc1 [Tideglusib] (10 µM) | 0
27 | C=CC(=O)Nc1cccc(Oc2nc(Nc3ccc(N4CCN(C)CC4)cc3)ncc2Cl)c1 (2.5 µM) | 0
28 | CNC(=O)c1ccc(-c2cnc3ncc(Cc4ccc5ncccc5c4)n3n2)cc1F [Capmatinib] (10 µM) | 0
29 | CN(C)C(=O)c1cc2cnc(Nc3ccc(NC(=O)C4(C(=O)Nc5ccc(F)cc5)CC4)cc3)nc2n1C1CCCC1 (2 µM) | 0
30 | Cn1cc(C2=C(c3c4n(c5ccccc35)CCC(CN)C4)C(=O)NC2=O)c2ccccc21 (stereo not drawn) [Bisindolylmaleimide X (hydrochloride)] (2.5 µM) | 0
31 | COc1cc(/C=C/c2ccc(NC(=O)/C=C/c3cc(OC)c(OC)c(OC)c3)cc2)cc(OC)c1 (2.5 µM) | 0
32 | O=C(N=c1sccn1Cc1ccccc1)c1c[nH]c2ncccc12 (10 µM) | 0
33 | C=CCN(/C=C1/C(=O)O[C@H](COC)[C@@]2(C)C1=C(O)C(=O)C1=C2[C@H](OC(C)=O)C[C@]2(C)C(=O)CC[C@@H]12)CC=C [Sonolisib] (2.5 µM) | 0
34 | CC(C)(C)c1ccc(C(=O)Nc2cn3cc(-n4ccnc4)ccc3n2)cc1 (10 µM) | 0
35 | C[C@@]12CCc3occc3[C@H]1CC[C@@]13C[C@@H](CC[C@H]12)[C@@](O)(CO)C3 [Cafestol] (10 µM) | 0
36 | O=S(=O)(c1cccc2c(Cl)cccc12)N1CCCNCC1 (10 µM) | 0
37 | Oc1ccc2ccccc2c1SSc1c(O)ccc2ccccc12 (10 µM) | 0
38 | COc1cc(Nc2nc3ccccc3nc2NS(=O)(=O)c2ccc(NC(=O)c3ccc(C)c(OC)c3)cc2)cc(OC)c1 (10 µM) | 0
